# Assay results from patent US20020132773A1, “Methods for reducing fat by administration of adiponectin” (Oklahoma Medical Research Foundation, priority 2001, published 2002).
# For at least one compound, name, drawing or mass did not settle the structure.
# Tested on: BMS2 cells
# Assay: Adipocyte differentiation of BMS2 cells
# Assay type: cell-based
# Settings: 5 μg/ml insulin and 0.5 mM MIBX, 10 days; proteins 10 μg/ml, PGE2 and Dup-697 1×10^-6 M; microscopy
# Procedure: Differentiation of BMS2 cells to adipocytes was achieved by treatment with 5 μg/ml insulin and 0.5 mM MIBX for 10 days. Differentiation of MS5 cells to adipocytes was achieved by treatment with 5 μg/ml insulin alone for 15 days. Cultures were treated with adiponectin, PGE2 or Dup-697 from the time of culture initiation. At the end of this period, cultures were photographed and then stained with Nile red to detect lipid accumulation indicative of adipocyte differentiation. The extent of differentiation was estimated by flow cytometry (FACScan; Becton-Dickinson, San Jose, Calif.).
smiles,measurement,value
"CS(=O)(=O)c1ccc(-c2cc(Br)sc2-c2ccc(F)cc2)cc1 [Dup-697, reference compound]",fat cell formation (adipogenesis) of BMS2 cells,no influence on fat cell formation
